According to patent US20110033850A1, “COMPOSITIONS AND METHODS FOR THE IDENTIFICATION OF INHIBITORS OF RETROVIRAL INFECTION” (priority 2007, published 2011):
Some entries share one result that the patent states for a list of compounds.

System: HIV
Experiment: anti-HIV activity in freshly harvested PBMC cells (secondary HIV assay)
Type: cell-based
Conditions: inhibited HIV cells and not PBMC cells
Description: These compounds were analyzed for anti-HIV activity in freshly harvested PBMC cells. Of the 30 tested compounds, 15 were active at a concentration of less than 100 ˜M (the highest tested concentration). Of these 15 compounds, 9 were […] to the PBMC cells at the 100 ˜M concentration; thus, an absolute conclusion regarding the differential toxicity to HIV and PBMC cells cannot be drawn with these 9 compounds. […]

Compound | antiviral index
CN(C)c1cccc2c(C=O)ccc(N(C)C)c12 | greater than 25
O=C1c2ccccc2C(=O)c2c1nc1ccccn21 [naphtho[2′,3′,4,5]imidazo[1,2-a]pyridine-6,11-dione] | greater than 25
